For this experiment, the target named is T1, 6Myc-Ebf1 (293T), Q07802.
T1 chain: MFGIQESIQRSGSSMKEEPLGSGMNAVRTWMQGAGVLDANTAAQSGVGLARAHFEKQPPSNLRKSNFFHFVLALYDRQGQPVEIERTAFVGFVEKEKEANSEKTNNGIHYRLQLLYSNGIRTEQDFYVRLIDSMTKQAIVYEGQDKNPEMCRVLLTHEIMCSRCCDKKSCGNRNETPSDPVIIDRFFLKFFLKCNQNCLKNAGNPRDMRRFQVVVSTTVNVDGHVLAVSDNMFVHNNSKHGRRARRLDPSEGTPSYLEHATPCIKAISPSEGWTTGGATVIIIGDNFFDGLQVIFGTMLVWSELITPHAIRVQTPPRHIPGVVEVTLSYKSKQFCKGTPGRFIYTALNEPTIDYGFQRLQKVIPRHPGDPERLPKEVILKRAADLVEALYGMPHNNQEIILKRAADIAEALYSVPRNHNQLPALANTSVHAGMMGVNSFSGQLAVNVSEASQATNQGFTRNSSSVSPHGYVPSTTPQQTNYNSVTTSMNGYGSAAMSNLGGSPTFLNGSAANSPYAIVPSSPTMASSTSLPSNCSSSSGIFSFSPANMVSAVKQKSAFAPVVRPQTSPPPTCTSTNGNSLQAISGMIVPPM
Kind of experiment: co-IP; 293T cells transiently transfected (48 h) with 2HA-Zfp521, 3Flag-Zfp423 and 6Myc-Ebf1 in combinations (also without Ebf1); immunoprecipitation with anti-Flag, anti-HA or anti-Myc as indicated, blots with the same antibodies. The following applies: remark: other sources report otherwise.

These are yes or no findings as the source states them, for the method shown. Binding seen in cells or lysates may run through a third protein. Some binding calls cover weakened binding; strength is not graded here. Where a sequence is shown, tags or fusion partners need not be part of it.

B1: 3Flag-Zfp423 (293T), Q80TS5 1-1292 (protein)
chain: MSRRKQAKPRSVKVEEGEASDFSLAWDSSVAAAGGLEGEPECDRKTSRALEDRNSVTSQEERNEDDEDVEDESIYTCDHCQQDFESLADLTDHRAHRCPGDGDDDPQLSWVASSPSSKDVASPTQMIGDGCDLGLGEEEGGTGLPYPCQFCDKSFIRLSYLKRHEQIHSDKLPFKCTFCSRLFKHKRSRDRHIKLHTGDKKYHCHECEAAFSRSDHLKIHLKTHSSSKPFKCSVCKRGFSSTSSLQSHMQAHKKNKEHLAKSEKEAKKDDFMCDYCEDTFSQTEELEKHVLTLHPQLSEKADLQCIHCPEVFVDESTLLAHIHQAHANQKHKCPMCPEQFSSVEGVYCHLDSHRQPDSSNHSVSPDPVLGSVASMSSATPDSSASVERGSTPDSTLKPLRGQKKMRDDGQSWPKVVYSCPYCSKRDFTSLAVLEIHLKTIHADKPQQSHTCQICLDSMPTLYNLNEHVRKLHKSHAYPVMQFGNISAFHCNYCPEMFADINSLQEHIRVSHCGPNANPPDGNNAFFCNQCSMGFLTESSLTEHIQQAHCSVGSTKLESPVVQPTQSFMEVYSCPYCTNSPIFGSILKLTKHIKENHKNIPLAHSKKSKAEQSPVSSDVEVSSPKRQRLSGSANSISNGEYPCNQCDLKFSNFESFQTHLKLHLELLLRKQACPQCKEDFDSQESLLQHLTVHYMTTSTHYVCESCDKQFSSVDDLQKHLLDMHTFVLYHCTLCQEVFDSKVSIQVHLAVKHSNEKKMYRCTACNWDFRKEADLQVHVKHSHLGNPAKAHKCIFCGETFSTEVELQCHITTHSKKYNCRFCSKAFHAVILLEKHLREKHCVFDAAAENGTANGVPPTSTKKAEPADLQGMLLKNPEAPNSHEASEDDVDASEPMYGCDICGAAYTMEVLLQNHRLRDHNIRPGEDDGSRKKAEFIKGSHKCNVCSRTFFSENGLREHLQTHRGPAKHYMCPICGERFPSLLTLTEHKVTHSKSLDTGTCRICKMPLQSEEEFIEHCQMHPDLRNSLTGFRCVVCMQTVTSTLELKIHGTFHMQKLAGSSAASSPNGQGLQKLYKCALCLKEFRSKQDLVRLDVNGLPYGLCAGCMARSANGQVGGLAPPEPADRPCAGLRCPECNVKFESAEDLESHMQVDHRDLTPETSGPRKGAQTSPVPRKKTYQCIKCQMTFENEREIQIHVANHMIEEGINHECKLCNQMFDSPAKLLCHLIEHSFEGMGGTFKCPVCFTVFVQANKLQQHIFAVHGQEDKIYDCSQCPQKFFFQTELQNHTMSQHAQ
Turning to B1, the binding result is “binds”.

For the origin of these results see paper PMC3507953.
